At least one structure is not confirmed: it was looked up by name or label, or the drawing left a doubt.
Legend:
[1] = tested on: SW1353 cells; experiment: Proliferation of SW1353 cells cultured beforehand with PPARγ siRNA or control siRNA; type: cell-based, human; details: PPARγ-siRNA 100 nM 48 hours, 400 μM zaltoprofen or 100 μM rosiglitazone
[2] = tested on: human PVNS cells; experiment: Proliferation of human PVNS cells cultured beforehand with PPARγ siRNA or control siRNA; type: cell-based; details: PPARγ siRNA 100 nM 48 hours, 100 μM rosiglitazone or 400 μM zaltoprofen

## CN(CCOc1ccc(CC2SC(=O)NC2=O)cc1)c1ccccn1 (centres unmarked) [rosiglitazone]
[1]
  cell proliferation-suppressing action when expression of PPARγ is suppressed by siRNA: substantially eliminated
[2]
  cell proliferation-suppressing action with PPARγ siRNA: substantially completely eliminated

— patent US10653667B2, “Drug for preventing, treating or preventing metastasis of giant cell tumor that occurs in bone or soft parts, chondrosarcoma, or osteosarcoma, local injection for arterial embolization, and artificial bone” (NIPPON CHEMIPHAR CO., LTD, priority 2013, dated 2020)
